The source of these data is paper PMC11421797.

Protein sequences, listed by entry. Tags and fused reporters are not part of them.
UniProt Q9BQA1: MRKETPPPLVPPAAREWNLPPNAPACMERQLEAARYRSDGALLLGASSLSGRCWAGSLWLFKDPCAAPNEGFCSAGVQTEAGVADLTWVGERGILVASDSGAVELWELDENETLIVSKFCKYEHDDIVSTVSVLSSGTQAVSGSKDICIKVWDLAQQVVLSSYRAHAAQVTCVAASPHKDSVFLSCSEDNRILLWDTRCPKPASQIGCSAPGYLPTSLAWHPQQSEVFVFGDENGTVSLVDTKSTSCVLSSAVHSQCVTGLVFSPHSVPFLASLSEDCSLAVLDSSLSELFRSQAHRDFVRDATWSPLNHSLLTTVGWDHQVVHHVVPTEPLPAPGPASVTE
UniProt O14744: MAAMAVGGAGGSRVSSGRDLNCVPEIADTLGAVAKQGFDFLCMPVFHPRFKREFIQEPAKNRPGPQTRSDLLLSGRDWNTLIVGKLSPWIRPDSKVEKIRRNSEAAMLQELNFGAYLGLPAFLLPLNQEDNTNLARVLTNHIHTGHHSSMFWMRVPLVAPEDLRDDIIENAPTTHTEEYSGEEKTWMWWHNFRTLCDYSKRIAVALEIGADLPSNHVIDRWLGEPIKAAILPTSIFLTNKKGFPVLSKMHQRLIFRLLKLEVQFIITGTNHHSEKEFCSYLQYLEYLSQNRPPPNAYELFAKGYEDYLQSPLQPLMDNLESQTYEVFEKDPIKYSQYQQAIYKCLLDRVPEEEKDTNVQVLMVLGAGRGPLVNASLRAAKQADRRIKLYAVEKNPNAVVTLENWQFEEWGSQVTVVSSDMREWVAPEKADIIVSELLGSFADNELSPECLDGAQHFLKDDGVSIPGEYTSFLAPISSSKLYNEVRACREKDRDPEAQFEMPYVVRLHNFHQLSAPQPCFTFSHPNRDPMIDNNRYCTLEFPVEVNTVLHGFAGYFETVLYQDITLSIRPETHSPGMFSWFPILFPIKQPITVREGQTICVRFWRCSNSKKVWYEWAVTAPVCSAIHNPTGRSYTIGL

These are yes or no findings as the source states them, for the method shown. Binding seen in cells or lysates may run through a third protein. Some entries that bind do so weakly or less than the wild type. For some assays here: Where a sequence is shown, tags or fusion partners need not be part of it.

Experiment [1] deals with T1, HA-tagged KSHV vCyclin (Kaposi's sarcoma-associated herpesvirus (KSHV BAC16)) (UniProt Q77Q36).
T1 sequence: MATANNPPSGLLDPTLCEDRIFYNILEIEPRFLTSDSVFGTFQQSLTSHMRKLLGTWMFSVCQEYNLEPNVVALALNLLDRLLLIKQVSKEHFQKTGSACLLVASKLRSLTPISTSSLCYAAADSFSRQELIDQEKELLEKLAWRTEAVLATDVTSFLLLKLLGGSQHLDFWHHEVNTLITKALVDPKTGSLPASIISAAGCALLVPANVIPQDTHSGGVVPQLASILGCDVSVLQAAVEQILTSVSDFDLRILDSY
As to the kind of experiment: co-IP; HEK293T cells cotransfected with Flag- and HA-tagged plasmids; lysed 48 h after transfection in Western and IP lysis buffer; IP with anti-HA antibodies, immunoblot.

Experiment [2] addresses T2, GST-fused KSHV vCyclin (Kaposi's sarcoma-associated herpesvirus (KSHV BAC16)) (UniProt Q77Q36).
T2 sequence: T1 sequence
As to the kind of experiment: pull-down; purified GST or GST-vCyclin on glutathione beads incubated with in vitro translated PRMT5 overnight; washed four times with RIPA buffer; western blotting; only the target purified. A general note: A western blot detects proteins with antibodies after separation by electrophoresis.

The target of experiment [3] is HA-tagged methylosome protein 50 (human) (UniProt Q9BQA1). Kind of experiment: co-IP; HEK293T cells cotransfected with Flag- and HA-tagged plasmids; lysed 48 h after transfection in Western and IP lysis buffer; IP with anti-HA antibodies, immunoblot.
Experiment [4] has as its target HA-tagged protein arginine methyltransferase 5 (human) (UniProt O14744). The experiment is described as above.
Experiment [5] deals with endogenous protein arginine methyltransferase 5 (human (endogenous in HEK293T, HEK293T.219 and iSLK.RGB)) (UniProt O14744). As to the kind of experiment: co-IP; endogenous proteins; iSLK.RGB cell lysates immunoprecipitated with anti-PRMT5 antibody or rabbit IgG control, immunoblot.

On to “Flag-tagged protein arginine methyltransferase 5 (from UniProt O14744 1-637) (enzyme)”, for which the binding entry in experiment [1] is “binds”. Regarding “in vitro translated PRMT5 (from UniProt O14744 1-637) (enzyme)”, the binding result in experiment [2] is recorded as “binds”.

B1: Flag-tagged KSHV vCyclin (protein, UniProt Q77Q36 1-257)
chain: T1 sequence
With B1, the binding entry in experiment [3] and in experiment [4] was “binds” in each case.

B2: endogenous KSHV vCyclin (protein, UniProt Q77Q36 1-257)
chain: T1 sequence
In the case of B2, in experiment [5], the binding entry is “binds”.
